Source: US7767458B2, “Method for determining coagulation activation and device for carrying out said method” (Technoclone Gesellschaft m.b.H., priority 2005, dated 2010)

Tested on: proteolyitic enzymes which cleave the fluoriginic substrate
Assay: Thrombin generation by fluorescence measurement in whole blood samples with added protease inhibitors
Assay type: biochemical
Conditions: anticoagulated whole blood, fluorigenic substrate; Aprotinin 3 concentrations (FIG. 10), Leupeptin 2 concentrations (FIG. 11)

Row | Compound | interpretability of thrombin generation measured in whole blood
1 | CC(=O)N[C@@H](CC(C)C)C(=O)N[C@@H](CC(C)C)C(=O)N[C@H](C=O)CCCNC(=N)N [Leupeptin] | yielding a result that can be interpreted; also recorded: the results are interpretable
2 | Aprotinin | yielding a result that can be interpreted; also recorded: the results are interpretable

Entries after “also recorded” stand apart in the source; their conditions may differ.
